{
  "source": "patent US10800758B2",
  "about": "“Pyrimidine compound” (OTSUKA PHARMACEUTICAL CO., LTD., priority 2017, dated 2020)",
  "tested_on": "ICR mice",
  "assay": "Rotarod test",
  "assay_type": "in vivo",
  "details": "male ICR mice, 30 mg/kg oral, rotarod 4 to 40 rpm 1 hour after administration, falling latency relative to solvent group",
  "note": "Some of these results come from one statement about several compounds together.",
  "data": [
    {"smiles": "C[Si](C)(C)c1cccc(Oc2ncc(N3CCC(=O)NC3=O)cn2)c1", "note": "[Example 56]", "values": [
      {"measurement": "rate of motor dysfunction", "value": "≤ 25", "unit": "%"}
    ]}
  ]
}
